# Literature values, collected in patent publication US20240374510A1, “COMPOSITIONS, USES AND METHODS FOR TREATMENT OF PERIODONTAL DISEASE” (THE UNIVERSITY OF BRITISH COLUMBIA, priority 2023, published 2024).
# For at least one compound, name, drawing or mass did not settle the structure.
# System: ITGB6
# Settings: Bi et al., 2020; cited from earlier work
smiles,measurement,value
CN(C)C/C=C/C(=O)Nc1cc2c(Nc3ccc(F)c(Cl)c3)ncnc2cc1O[C@H]1CCOC1 [afatinib],blocking of ITGB6 downregulation by HB-EGF,capable of dose-dependently blocking ITGB6 downregulation
